The values that follow come from publication PMC8212425 (Translational Vision Science & Technology, 2021).

In series [1] the test system is VEGFR2. The note with it: in vitro VEGFR2 autophosphorylation inhibition assay; cited from earlier work.
Series [2] relates to VEGFR-2. The note with it: cited from earlier work.
Series [3] has as its system VEGFR-3. The note with it: cited from earlier work.
Series [4] is classed as in vivo, New Zealand White rabbits. The note with it: 1 mg/eye, NZW rabbits.
The subject of series [5] is VEGFR-1. The note with it: cited from earlier work.

As for `CNC(=O)c1ccccc1Sc1ccc2c(/C=C/c3ccccn3)n[nH]c2c1` [Axitinib], in series [1], the “50% inhibitory concentration value” is listed as 0.2 ng/mL. The Inhibitory concentration entry in series [2], in series [3] and in series [5] was “picomolar” throughout. The “Fold higher AUC0-t (exposure) in PEC, SC versus IVT” value in series [4] turned out to be 11 fold. In addition, the “Fold higher Cmax in PEC, SC versus IVT” value in series [4] is on record as 6.4 fold.
